According to article PMC8506026:
These are yes or no findings as the source states them, for the method shown. Binding seen in cells or lysates may run through a third protein. Some binding calls cover weakened binding; strength is not graded here.

The chains behind the UniProt entries cited, without tags or fusion partners.
UniProt Q03113: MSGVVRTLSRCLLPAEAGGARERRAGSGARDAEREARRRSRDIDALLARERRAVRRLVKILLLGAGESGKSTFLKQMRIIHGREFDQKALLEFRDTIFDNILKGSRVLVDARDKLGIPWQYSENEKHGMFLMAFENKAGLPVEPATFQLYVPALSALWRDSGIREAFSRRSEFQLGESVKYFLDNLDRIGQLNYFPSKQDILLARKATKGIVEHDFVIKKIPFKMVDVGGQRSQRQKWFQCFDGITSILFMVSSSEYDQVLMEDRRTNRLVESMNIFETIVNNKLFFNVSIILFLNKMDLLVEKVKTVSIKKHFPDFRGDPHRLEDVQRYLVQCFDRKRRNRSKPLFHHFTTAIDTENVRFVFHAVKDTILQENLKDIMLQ
UniProt Q9NZN5: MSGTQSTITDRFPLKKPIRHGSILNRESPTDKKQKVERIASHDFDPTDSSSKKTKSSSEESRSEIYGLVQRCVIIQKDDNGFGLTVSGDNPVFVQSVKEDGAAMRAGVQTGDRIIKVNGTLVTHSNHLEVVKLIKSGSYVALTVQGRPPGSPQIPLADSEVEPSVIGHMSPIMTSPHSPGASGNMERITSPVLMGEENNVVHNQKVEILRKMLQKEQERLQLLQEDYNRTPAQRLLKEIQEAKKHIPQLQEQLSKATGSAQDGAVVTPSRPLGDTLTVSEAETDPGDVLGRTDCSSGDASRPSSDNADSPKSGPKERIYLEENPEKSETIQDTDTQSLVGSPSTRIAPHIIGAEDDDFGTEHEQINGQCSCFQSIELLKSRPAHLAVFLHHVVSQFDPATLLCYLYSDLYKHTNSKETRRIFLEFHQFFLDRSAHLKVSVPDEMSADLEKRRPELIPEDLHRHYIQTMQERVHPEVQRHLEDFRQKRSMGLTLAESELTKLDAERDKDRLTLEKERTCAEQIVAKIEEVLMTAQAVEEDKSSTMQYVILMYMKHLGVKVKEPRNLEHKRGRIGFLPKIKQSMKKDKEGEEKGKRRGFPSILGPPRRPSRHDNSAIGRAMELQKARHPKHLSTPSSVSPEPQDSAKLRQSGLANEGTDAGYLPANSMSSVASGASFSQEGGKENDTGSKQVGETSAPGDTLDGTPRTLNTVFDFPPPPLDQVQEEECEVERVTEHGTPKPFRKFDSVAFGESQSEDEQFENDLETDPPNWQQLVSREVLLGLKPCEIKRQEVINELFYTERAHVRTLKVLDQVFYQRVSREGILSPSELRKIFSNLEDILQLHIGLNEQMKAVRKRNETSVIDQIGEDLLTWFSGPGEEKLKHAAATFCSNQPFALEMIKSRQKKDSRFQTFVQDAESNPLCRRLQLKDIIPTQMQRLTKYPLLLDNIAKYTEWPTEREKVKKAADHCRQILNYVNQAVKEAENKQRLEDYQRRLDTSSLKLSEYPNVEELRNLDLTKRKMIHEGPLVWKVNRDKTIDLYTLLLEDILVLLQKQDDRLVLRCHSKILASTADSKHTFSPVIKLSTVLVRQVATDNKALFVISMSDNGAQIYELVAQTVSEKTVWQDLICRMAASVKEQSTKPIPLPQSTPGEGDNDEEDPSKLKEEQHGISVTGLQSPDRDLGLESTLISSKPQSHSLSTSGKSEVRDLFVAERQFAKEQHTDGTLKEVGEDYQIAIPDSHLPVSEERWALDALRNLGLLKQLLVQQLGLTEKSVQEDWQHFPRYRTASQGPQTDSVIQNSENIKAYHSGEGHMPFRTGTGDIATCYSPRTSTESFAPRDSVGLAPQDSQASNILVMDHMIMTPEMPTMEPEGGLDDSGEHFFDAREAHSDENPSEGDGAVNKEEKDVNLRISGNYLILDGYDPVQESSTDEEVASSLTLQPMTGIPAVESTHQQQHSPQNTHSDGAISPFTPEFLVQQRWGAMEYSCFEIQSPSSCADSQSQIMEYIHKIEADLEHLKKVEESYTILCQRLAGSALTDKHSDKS

Target: Gα12 (human (endogenous in TPC1 and FTC-133)) (UniProt Q03113)
Experiment: co-IP; endogenous proteins in whole-cell lysates (M-PER, protease and phosphatase inhibitors) of TPC1 and FTC-133 thyroid cancer cells, pre-cleared with Protein A/G Dynabeads, 2 mg/ml lysate; control IgG; immunoblot

binding: binds
Substance: leukemia associated RhoA guanine exchange factor (LARG) (from UniProt Q9NZN5 1-1544)
